This is one part of the list.

Sequences of proteins named here, by UniProt entry; tags and fusion partners are left off.
UniProt Q0JBA9, entry or part of it: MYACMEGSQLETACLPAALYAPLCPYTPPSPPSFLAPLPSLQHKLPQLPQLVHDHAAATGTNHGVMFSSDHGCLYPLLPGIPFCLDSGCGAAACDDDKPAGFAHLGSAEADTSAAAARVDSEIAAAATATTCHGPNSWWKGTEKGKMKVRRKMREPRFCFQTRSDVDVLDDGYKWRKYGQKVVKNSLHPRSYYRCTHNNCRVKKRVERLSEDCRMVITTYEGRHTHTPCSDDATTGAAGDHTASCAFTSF

The assay addresses OsWRKY34 (Oryza sativa, UniProt Q0JBA9 1-250). Briefly: protein-binding microarray (RPBM); PBS, 2% BSA, 51.3 ng/ul salmon testes DNA, 50 uM zinc acetate, 200 nM TF, 25 C, 1 h; high values mean tight binding. To be noted: protein: recombinant; tags: N-terminal polyhistidine and DsRed monomer fusion (pET32a); label: CyDye5-dUTP incorporated in the synthesized complementary strand; 3' TTTTT single-stranded linker to array surface; dsDNA, one strand shown. In outline:
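Binding signal is defined as the fluorescence intensity of each feature in arbitrary units, read on an Axon 4000B scanner. Transcription factors with N-terminal polyhistidine and DsRed fusions came from E. coli BL21-CodonPlus and were purified on Ni–NTA. They were incubated at 200 nM for 1 h at 25 °C on a custom Agilent array that had been made double-stranded with Cy5-dUTP, with 50 µM zinc acetate present, and the array was washed.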
For the sequence “CCAAAATCCCCTCGTCGTCCCGTCGCGCGCGGCCGCTTCCCGGAGTCACCTAGTGCAG”, the binding signal was 8990 fluorescence intensity (a.u.).

For “ATCCCCACCATCTCTCGTGGGGCAGCACACACTGCACGAACGGAGTCACCTAGTGCAG”, the binding signal is 8070 fluorescence intensity (a.u.).

Turning to “TTTCCGTACTAAATTTTGTTCATTCGTTTTATTTATTTTTCGGAGTCACCTAGTGCAG”, the binding signal is 17100 fluorescence intensity (a.u.).

“ATATGGACTCCATACTCTACTTCTAATATTCCTTATTTTTCGGAGTCACCTAGTGCAG”: the binding signal is 8270 fluorescence intensity (a.u.).

Take “ACTTACGACAACCCGCCATGTCTTTTTTCCCGCCATAAGTCGGAGTCACCTAGTGCAG”: the binding signal is 9810 fluorescence intensity (a.u.).

As to “CCGGCGCGCGTCGCGGGTTGCTGTTCGTTTGCTGGATCCTCGGAGTCACCTAGTGCAG”, the binding signal was 11800 fluorescence intensity (a.u.).

“ACCTACCCATTTGACCGTACCCCAAAACAACCGAGAAATTCGGAGTCACCTAGTGCAG”: the binding signal is 9620 fluorescence intensity (a.u.).

Take “CACCACACCACATTTCTCTCTCTAGATTTCTCTCTCTCTCCGGAGTCACCTAGTGCAG”: the binding signal was 12200 fluorescence intensity (a.u.).

As for “GGCGCACCGTCACGAACCGCATCGGTCCAGCGAGCTATCACGGAGTCACCTAGTGCAG”, the binding signal is 8210 fluorescence intensity (a.u.).

On to “CCCCACACCACCACCGCGCGCCCGCATTTCTCCCCGCTCCCGGAGTCACCTAGTGCAG”, for which the binding signal is 12200 fluorescence intensity (a.u.).

As to “TGTCAGCAGCTGTTGCCGTTTGTACCCATGCCGGGTCACGCGGAGTCACCTAGTGCAG”, the binding signal was 9270 fluorescence intensity (a.u.).

In the case of “CACCTCTGCCGCTGCTCCAAATCGTGTCACTGCTCCTCACCGGAGTCACCTAGTGCAG”, the binding signal is 8650 fluorescence intensity (a.u.).

As for “CTATCCTTTTTTTCTTTTTTGGAAAATTGCAACCAAATCACGGAGTCACCTAGTGCAG”, the binding signal is 9240 fluorescence intensity (a.u.).

As to “GTTTAGTTGATTTCAGGGCCAGTTCTTGTGGGGTTTTCAACGGAGTCACCTAGTGCAG”, the binding signal is 8490 fluorescence intensity (a.u.).

In the case of “GCGCCGGCGCCGACCCCGTCCTGCCCCACCCGCCGCTGCACGGAGTCACCTAGTGCAG”, the binding signal is 8230 fluorescence intensity (a.u.).

As to “CGATTGTTTGTAGTGATTATTAGTGCATGTGAAAGCCATGCGGAGTCACCTAGTGCAG”, the binding signal is 8280 fluorescence intensity (a.u.).

As for “TTGATTTCTTTTGCGAGCAGCGTACCCACCGCCGGCGATGCGGAGTCACCTAGTGCAG”, the binding signal is 16200 fluorescence intensity (a.u.).

With “CCTTGGGTTGGCGACATCTCCACCGTACCTCGCCATATCGCGGAGTCACCTAGTGCAG”, the binding signal is 8330 fluorescence intensity (a.u.).

For “AGGCCTCATCTTCTACTCCCACCGTCCCATAAAAACCAACCGGAGTCACCTAGTGCAG”, the binding signal is 9570 fluorescence intensity (a.u.).

As for “TCAACTGATTTTCTTTCTTTTACAATCAACTGATTTTCTTCGGAGTCACCTAGTGCAG”, the binding signal was 8720 fluorescence intensity (a.u.).

“ATTCTACCTCGTTAACCATAGATCCAAACTCTTAACCTCCCGGAGTCACCTAGTGCAG”: the binding signal is 8450 fluorescence intensity (a.u.).

For “GTATGCTGACTTTTTTTTAGGTAAGTGTAAACGGATTATGCGGAGTCACCTAGTGCAG”, the binding signal is 8400 fluorescence intensity (a.u.).

For the sequence “CAGTGCGTATTTGCAATATATATATATAGGAAAGTTTCTTCGGAGTCACCTAGTGCAG”, the binding signal was 9390 fluorescence intensity (a.u.).

Consider “TTACATGCATATTTGATTTTTTTTCTAGAAATTTTGTCTCCGGAGTCACCTAGTGCAG”, for which the binding signal is 8300 fluorescence intensity (a.u.).

For “CCCGAATCCAACCAATCCCCGCGCCGATTCCCGCCATTTCCGGAGTCACCTAGTGCAG”, the binding signal is 8590 fluorescence intensity (a.u.).

As for “CTGCCCGCAACAAATAATGGAATAACTCTATACTTCTCTTCGGAGTCACCTAGTGCAG”, the binding signal was 8450 fluorescence intensity (a.u.).

As for “GCATACAGAGTTCCAGAAATTTCCGACTGGTCATCTCATCCGGAGTCACCTAGTGCAG”, the binding signal is 9680 fluorescence intensity (a.u.).

Turning to “GGAATTTGGTCGAGCCGTGTTGTTGGGTTGACCTAGGTGGCGGAGTCACCTAGTGCAG”, the binding signal was 10400 fluorescence intensity (a.u.).

As to “CGCGTTTTGCTATCATCTGTTTTACACTTACATTCCTATTCGGAGTCACCTAGTGCAG”, the binding signal is 8890 fluorescence intensity (a.u.).

As for “GTTTTTCGTTTTGTCGCCCTTTTTTATTGGACAGTTTGGTCGGAGTCACCTAGTGCAG”, the binding signal was 11900 fluorescence intensity (a.u.).

For the sequence “TGATTGTGTTTGTAGACTTGGTTGGTATTGTTGAACGGATCGGAGTCACCTAGTGCAG”, the binding signal is 11800 fluorescence intensity (a.u.).

For the sequence “TCTCTTCCGCCACCCACCAATAGATTCACGTTTATAGTCCCGGAGTCACCTAGTGCAG”, the binding signal was 8210 fluorescence intensity (a.u.).

With “TGCTGAAACTTGCAACTGCTATCATGATGTTATGTTACCCCGGAGTCACCTAGTGCAG”, the binding signal is 9900 fluorescence intensity (a.u.).

Regarding “ACCCTTATCATTCGGTTTACGGATATCCCCAGTCGATATACGGAGTCACCTAGTGCAG”, the binding signal was 8030 fluorescence intensity (a.u.).

Take “TCCCAGTTAGCATCGATCAACACTTGCATGCAGCTGCTACCGGAGTCACCTAGTGCAG”: the binding signal is 8170 fluorescence intensity (a.u.).

Consider “GACTAGCATTTTCCGGAAACGACCGCGTCGACTTTATCCACGGAGTCACCTAGTGCAG”, for which the binding signal is 8020 fluorescence intensity (a.u.).

With “GGATGGCGACCTGTAGCCCGTCTTTTGTTTTCGCTTCGCTCGGAGTCACCTAGTGCAG”, the binding signal was 10000 fluorescence intensity (a.u.).

On to “ATCGCCATCATCCACTGTTCATCCACTCCATCTCTCTCTCCGGAGTCACCTAGTGCAG”, for which the binding signal was 12400 fluorescence intensity (a.u.).

For the sequence “TCTCGATTGCTCTTCCCCTGCCTTTGCGGCGCCGCCGGGTCGGAGTCACCTAGTGCAG”, the binding signal was 8480 fluorescence intensity (a.u.).

Take “TACCACTCGTGACGTCACGCCCACTTTACTTTCGCGTAACCGGAGTCACCTAGTGCAG”: the binding signal was 12900 fluorescence intensity (a.u.).

As for “AGCATGATAATCTCTCTCCACATTTTCTACTCGTGCCATACGGAGTCACCTAGTGCAG”, the binding signal was 8410 fluorescence intensity (a.u.).

In the case of “CGCCCGCCACCATCCTTCTCTCTTCCGGTGAACTCATGCACGGAGTCACCTAGTGCAG”, the binding signal was 9070 fluorescence intensity (a.u.).
